From paper PMC8699718, “A structurally conserved site in AUP1 binds the E2 enzyme UBE2G2 and is essential for ER-associated degradation” (PLoS Biology, 2021)
These are yes or no findings as the source states them, for the method shown. For part of these data: In cells and extracts the contact can be indirect. For part of these data: Where a sequence is shown, tags or fusion partners need not be part of it. Some results given as binding are weak or reduced against the parent protein; the word gives no strength.

Amino acid sequences for entries named in this document (tags omitted).
UniProt P60604: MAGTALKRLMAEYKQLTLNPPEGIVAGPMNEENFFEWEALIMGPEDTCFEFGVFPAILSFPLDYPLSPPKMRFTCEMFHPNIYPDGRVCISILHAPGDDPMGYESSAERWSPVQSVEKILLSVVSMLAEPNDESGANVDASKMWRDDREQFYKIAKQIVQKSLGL

T1: GST-AUP1 (aa 292 to 410) (UniProt Q9Y679)
T1 sequence: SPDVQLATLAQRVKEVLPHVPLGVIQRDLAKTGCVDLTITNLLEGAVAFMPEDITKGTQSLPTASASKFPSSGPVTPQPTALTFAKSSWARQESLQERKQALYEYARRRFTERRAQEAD

B1: AUP1(379 to 410) (domain or fragment, UniProt Q9Y679 379-410)
chain: SWARQESLQERKQALYEYARRRFTERRAQEAD
B2: in vitro translated ^35S-labeled UBE2G1 (enzyme, UniProt P62253 1-170)
chain: MTELQSALLLRRQLAELNKNPVEGFSAGLIDDNDLYRWEVLIIGPPDTLYEGGVFKAHLTFPKDYPLRPPKMKFITEIWHPNVDKNGDVCISILHEPGEDKYGYEKPEERWLPIHTVETIMISVISMLADPNGDSPANVDAAKEWREDRNGEFKRKVARCVRKSQETAFE
modifications: ^35S methionine-labeled
B3: in vitro translated ^35S-labeled UBE2J1 cytoplasmic domain (aa 1 to 283) (domain or fragment, UniProt Q9Y385 1-283)
chain: METRYNLKSPAVKRLMKEAAELKDPTDHYHAQPLEDNLFEWHFTVRGPPDSDFDGGVYHGRIVLPPEYPMKPPSIILLTANGRFEVGKKICLSISGHHPETWQPSWSIRTALLAIIGFMPTKGEGAIGSLDYTPEERRALAKKSQDFCCEGCGSAMKDVLLPLKSGSDSSQADQEAKELARQISFKAEVNSSGKTISESDLNHSFSLTDLQDDIPTTFQGATASTSYGLQNSSAASFHQPTQPVAKNTSMSPRQRRAQQQSQRRLSTSPDVIQGHQPRDNHTD
modifications: ^35S methionine-labeled

What was measured:
[1] = target: UBE2G2 (co-expressed with GST-AUP1(379 to 410) for crystallization) (UniProt P60604); assay: crystal structure; complex of AUP1(379 to 410) and UBE2G2 co-expressed in E. coli; sitting drop, 30% PEG 4000, 0.2 M NH4Ac, 0.1 M NaAc pH 4.6; 1.74 Å; both purified
GST-AUP1 (aa 292 to 410) = target: T1, GST-AUP1 (aa 292 to 410); assay: condition: approximately 0.2 pmol E2 with approximately 3 pmol GST fusion in 200 μl; pull-down; 0.1 μg GST fusion (approximately 3 pmol) prebound to Glutathione Sepharose 4B, incubated with approximately 0.2 pmol in vitro translated ^35S-labeled E2 in 200 μl 25 mM Tris-HCl pH 7.4, 50 mM NaCl, 5 mM DTT, 0.5% IGEPAL CA-630, overnight at 4°C; only the target purified

| Binder | binding [1] | binding (GST-AUP1 (aa 292 to 410)) |
| --- | --- | --- |
| B1 | binds |  |
| B2 |  | no binding |
| B3 |  | no binding |
